Whole data set: some 33,000 sequences, median “E-score (-0.5 to 0.5)” near -0.0034, cut for the highest 2% near 0.25. This is one part of the list.
These sequences were tested against T1, Yap3 (UniProt P38749) (assay: PBM E-score (8-mer binding enrichment) (E-score (-0.5 to 0.5)); higher = stronger / more preferred TF binding). Conditions: protein concentration: 100 nM; construct: GST-full length.
T1 sequence: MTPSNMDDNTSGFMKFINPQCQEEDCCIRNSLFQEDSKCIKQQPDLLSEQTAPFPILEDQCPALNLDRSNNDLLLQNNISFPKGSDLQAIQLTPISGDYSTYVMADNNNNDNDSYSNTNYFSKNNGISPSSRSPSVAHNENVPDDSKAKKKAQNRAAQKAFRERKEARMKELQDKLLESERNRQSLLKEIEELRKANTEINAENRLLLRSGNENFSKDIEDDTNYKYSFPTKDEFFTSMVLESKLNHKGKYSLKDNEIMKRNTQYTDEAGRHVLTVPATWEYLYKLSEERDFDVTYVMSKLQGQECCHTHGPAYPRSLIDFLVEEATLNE
Experimental: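 Universal 'all 10-mer' protein binding microarrays (Agilent AMADID 015681) probed with GST-tagged S. cerevisiae TFs (full-length or DBD) made by in vitro transcription/translation (PURExpress), about 100-200 nM. Bound TF was detected with fluorescent anti-GST. Each ungapped 8-mer (which stands for itself and its reverse complement) is scored by the PBM enrichment score (E-score), a modified Wilcoxon-Mann-Whitney statistic from -0.5 to +0.5, computed with the Universal PBM Analysis Suite. Scale: above 0.35 generally sequence-specific binding.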
GTCGGTAA was tested, and the “PBM E-score” value was -0.0626. With GTTGCGAA the “PBM E-score” value was 0.0488. With TCGGGCAA the “PBM E-score” value was 0.0211. In the case of GGGTTTAA, the “PBM E-score” value was 0.0196. For AGTCGGCC, the “PBM E-score” value was 0.0134. ATATAAAC was tested, and the “PBM E-score” value was 0.247. CGCACGGC was tested, and the “PBM E-score” value was -0.0879. CAGGACCG was tested, and the “PBM E-score” value was -0.0673. AAATGATC was tested, and the “PBM E-score” value was -0.129. With CGGGCTCC the “PBM E-score” value was -0.276. CTACAGGA was tested, and the “PBM E-score” value was 0.11. In the case of AGGAAACT, the “PBM E-score” value was 0.0102. In the case of ATTCCATC, the “PBM E-score” value was -0.00318. With ACCCTATA the “PBM E-score” value was -0.084. In the case of CTTATCAC, the “PBM E-score” value was -0.0604. For GGATGCGA, the “PBM E-score” value was -0.203. In the case of GGCCTTAC, the “PBM E-score” value was -0.144. AAAGATAA was tested, and the “PBM E-score” value was 0.245. With CGGGCGGA the “PBM E-score” value was -0.142. With CGGGACTA the “PBM E-score” value was -0.184. For AAAATATG, the “PBM E-score” value was 0.256. For GAAACGAA, the “PBM E-score” value was 0.255. In the case of CTCACGTC, the “PBM E-score” value was 0.055. With CGAAGGGC the “PBM E-score” value was -0.221. With CCACATGA the “PBM E-score” value was 0.0785. For GAAGTGAC, the “PBM E-score” value was -0.073. In the case of CCCAATTA, the “PBM E-score” value was 0.164. ACAGGATC was tested, and the “PBM E-score” value was -0.172. For GCCAATTA, the “PBM E-score” value was 0.193. In the case of ACGTTTAG, the “PBM E-score” value was -0.0721. For ATGCTTCG, the “PBM E-score” value was -0.049. With CGTGTGTC the “PBM E-score” value was -0.0533. In the case of ATAGTCAG, the “PBM E-score” value was 0.0953. For CAAACGCG, the “PBM E-score” value was 0.15. GGGCTTCA was tested, and the “PBM E-score” value was -0.258. With ATGCAAAG the “PBM E-score” value was 0.0802. For AATTAACG, the “PBM E-score” value was 0.0243. In the case of GCGTTAGA, the “PBM E-score” value was 0.0241. ATTACCTC was tested, and the “PBM E-score” value was 0.0186. In the case of AACGCGAC, the “PBM E-score” value was -0.0182. With TCACGAGA the “PBM E-score” value was -0.0954. With CACTCCTG the “PBM E-score” value was -0.0967. With ACTGAAGC the “PBM E-score” value was -0.127. ACAATAAT was tested, and the “PBM E-score” value was 0.206. In the case of CGACCTCG, the “PBM E-score” value was -0.00605. In the case of AGCCGCAA, the “PBM E-score” value was -0.151. With CCGCTTTC the “PBM E-score” value was -0.15. GCACCAGA was tested, and the “PBM E-score” value was -0.181. For GTCTAGAA, the “PBM E-score” value was -0.0513. For TATTTAGA, the “PBM E-score” value was 0.211. In the case of CTGAAGGC, the “PBM E-score” value was -0.267. For CATCCCCG, the “PBM E-score” value was -0.00703. For CAAAATTC, the “PBM E-score” value was 0.168. In the case of ACCCGGAA, the “PBM E-score” value was 0.0401. For AAAGCCCA, the “PBM E-score” value was -0.0381. For GAAAGTCA, the “PBM E-score” value was 0.153. AAGAATTA was tested, and the “PBM E-score” value was 0.172. For ATGATAGC, the “PBM E-score” value was 0.138. For CCCGAAAC, the “PBM E-score” value was 0.0241. With ACGTATAT the “PBM E-score” value was 0.111. In the case of TGCCGACA, the “PBM E-score” value was 0.0236. With CCATTGTA the “PBM E-score” value was 0.138. In the case of TACAAGCA, the “PBM E-score” value was 0.17. With AATGCACT the “PBM E-score” value was 0.119. For TGATGCAA, the “PBM E-score” value was 0.00044. In the case of GACAAACA, the “PBM E-score” value was 0.121. For ATCTGGTC, the “PBM E-score” value was 0.11. AATAATGA was tested, and the “PBM E-score” value was 0.0556. GAAAATGA was tested, and the “PBM E-score” value was 0.146. For ATGCGAAT, the “PBM E-score” value was 0.0303. With TCTAAAGA the “PBM E-score” value was 0.188. For CCTTAGCC, the “PBM E-score” value was -0.0133. In the case of CGCGAGGC, the “PBM E-score” value was 0.0882. With AATAGATC the “PBM E-score” value was 0.08. In the case of ACTCCGGA, the “PBM E-score” value was 0.114. CCAGTCAA was tested, and the “PBM E-score” value was 0.00581. In the case of AACGGATA, the “PBM E-score” value was 0.255. With AACCTTAT the “PBM E-score” value was 0.0462. In the case of ACGGGCAC, the “PBM E-score” value was -0.131. AGTCCACT was tested, and the “PBM E-score” value was -0.124. For AAGAAGGT, the “PBM E-score” value was -0.0308. AAAAGTCC was tested, and the “PBM E-score” value was 0.0841. CTACCGCC was tested, and the “PBM E-score” value was -0.089. With CTGCCAAA the “PBM E-score” value was 0.0344. CGATTCTA was tested, and the “PBM E-score” value was -0.0732. With AAGTCATC the “PBM E-score” value was -0.0947. AGAAGGCC was tested, and the “PBM E-score” value was -0.206. With AAGAACGG the “PBM E-score” value was 0.0183. For GAATGCAA, the “PBM E-score” value was 0.0622. For ACCGGTAC, the “PBM E-score” value was -0.261. In the case of AGACCAAG, the “PBM E-score” value was 0.099. AGATAGGG was tested, and the “PBM E-score” value was -0.116. CGATAAGC was tested, and the “PBM E-score” value was -0.0233. With TGGAGGAA the “PBM E-score” value was -0.114. GGTTCATA was tested, and the “PBM E-score” value was 0.0305. For CCCCCCGG, the “PBM E-score” value was -0.5. In the case of AATCAAAC, the “PBM E-score” value was 0.208. In the case of GGAAGTTA, the “PBM E-score” value was 0.0744. ATTTCCCA was tested, and the “PBM E-score” value was 0.239. In the case of ATAACACG, the “PBM E-score” value was 0.137. For AGGCATCC, the “PBM E-score” value was -0.262. GTTGCTAA was tested, and the “PBM E-score” value was 0.251. With CGATCTAC the “PBM E-score” value was 0.0301. CCCTGTGA was tested, and the “PBM E-score” value was -0.246. In the case of CGAACAGC, the “PBM E-score” value was -0.214. In the case of CCTGTTAC, the “PBM E-score” value was 0.187. In the case of CTGTGAAG, the “PBM E-score” value was -0.00245. With AGATCACA the “PBM E-score” value was 0.0306. AGGCAGAA was tested, and the “PBM E-score” value was -0.0515.
